Laboratory results taken from PubChem BioAssay AID1671190 (National Center for Advancing Translational Sciences (NCATS), 2021).
“And” between values parts separate entries of the source, which are not always exact repeats. Equal values may be shown once. In all, about 580,000 compounds went through this assay and about 6,100 (1.1%) were called active. This list was built around the results that the source calls inconclusive (neither active nor inactive); the mix of calls is not that of the screen. The call rests on the fitted dose curve; in most records, active means well fitted inhibition curve with a large enough effect; inconclusive means small, poorly fitted or top-dose-only effect, or another doubt; inactive means no such curve, though single readings can be large or run the other way. Where the call is inconclusive, the potency comes from a doubtful curve fit.

The chains behind the UniProt entries cited, without tags or fusion partners.
UniProt P18054, whole entry, looked up: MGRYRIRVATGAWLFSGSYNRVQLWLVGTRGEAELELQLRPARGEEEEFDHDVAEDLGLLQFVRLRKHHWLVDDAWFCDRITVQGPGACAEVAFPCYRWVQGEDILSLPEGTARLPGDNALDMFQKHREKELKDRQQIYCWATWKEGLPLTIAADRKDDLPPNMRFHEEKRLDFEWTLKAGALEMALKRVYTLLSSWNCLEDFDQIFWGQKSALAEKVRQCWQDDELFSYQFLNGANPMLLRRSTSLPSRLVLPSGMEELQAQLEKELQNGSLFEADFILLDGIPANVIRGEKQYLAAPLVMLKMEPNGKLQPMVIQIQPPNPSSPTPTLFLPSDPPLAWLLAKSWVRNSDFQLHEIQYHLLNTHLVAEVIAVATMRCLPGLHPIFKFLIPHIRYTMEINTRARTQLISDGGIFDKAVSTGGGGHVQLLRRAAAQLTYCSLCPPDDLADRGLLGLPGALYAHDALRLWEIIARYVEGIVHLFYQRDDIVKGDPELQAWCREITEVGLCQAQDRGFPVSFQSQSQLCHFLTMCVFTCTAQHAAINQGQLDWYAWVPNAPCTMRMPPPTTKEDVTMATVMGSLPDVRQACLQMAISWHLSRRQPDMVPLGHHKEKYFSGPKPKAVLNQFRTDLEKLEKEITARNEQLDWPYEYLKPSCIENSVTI

molecular target: Polyunsaturated fatty acid lipoxygenase ALOX12 (Homo sapiens) (UniProt P18054); assay: Primary qHTS assay for inhibitors of human arachidonate 12S-lipoxygenase (ALOX12): Round 2; details: purified 12hLO, xylenol orange hydroperoxide absorbance; activity change, negative = inhibition: at 108 µM (top of the series) unless noted
Procedure, shortened: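 Hydroperoxide product was detected by ferrous iron/xylenol orange as the 573 to 405 nm absorbance ratio. Arachidonic acid at 40 uM (final) was turned over for 30 min at room temperature by 150 nM human 12hLO, pH 7.0 Hepes buffer, after 15 min compound preincubation.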
On the % scale 0 is the no-effect control and ±100 the full control effect; potency means the concentration at half of the fitted maximal effect.

Q: How did the Potency turn out when `Cc1ccc(-c2nc(C#N)c(NCCN(C)C)o2)cc1` was run?
A: Its Potency is “inactive”.

Q: With `CC(=O)C1=C(C)N(Cc2ccc(F)cc2)C(=S)NC1c1cccc(Cl)c1` (stereo not drawn) as the compound, how does the Potency read?
A: Its Potency is active: 44.7 µM.

Q: Which Potency does the source give for `COc1ccc(CCN(Cc2ccccn2)C(=S)Nc2ccccc2F)cc1OC` here?
A: Its Potency is inconclusive: 100 µM [inhibitor, single point].

Q: With `CC(=O)c1ccc(C(=O)NC(C)c2ccc(OC(F)F)cc2)s1` (stereo not drawn) as the compound, how does the Potency read?
A: Its Potency is inconclusive: 126 µM [inhibitor, partial curve, poor fit].

Q: With `CC(C)c1ccc(NC(=S)NC2CCSc3ccccc32)cc1` (stereo not drawn) as the compound, how does the Potency read?
A: Its Potency is active: 35.5 µM.

Q: Which Potency does the source give for `CCOC(=O)CCNC(=O)c1ccc(Br)cc1Cl` here?
A: The Potency was “inactive”.

Q: Which Potency does the source give for `O=C(N[C@@H]1CN(Cc2ccc(F)cc2Cl)C[C@H]1CO)C1CCC1` here?
A: The Potency was “inactive”.

Q: Which Potency does the source give for `O=C(O)CNS(=O)(=O)c1ccc(Cl)c(C(F)(F)F)c1` here?
A: Its Potency is inconclusive: 39.8 µM [inhibitor, partial curve, poor fit].

Q: `CN(C)C(=O)c1cc(C(=O)c2ccccc2)c[nH]1` was tested. Which Potency did it give?
A: Its Potency is inconclusive: 35.5 µM [inhibitor, partial curve, poor fit].

Q: Which Potency does the source give for `CCCCN(C(=O)c1cc(S(=O)(=O)N2CCOCC2)ccc1N1CCOCC1)c1ccccc1` here?
A: Its Potency is inconclusive: 44.7 µM [inhibitor, partial curve, poor fit].

Q: `Cn1c(=O)[nH]c(=O)c2c1nc(Br)n2Cc1ccccc1F` was tested. Which Potency did it give?
A: Its Potency is inconclusive: 158 µM [inhibitor, partial curve, poor fit].

Q: How did the Potency turn out when `O=C(c1ccc(-c2cccc(Cl)c2)o1)N1CCN(c2ccc([N+](=O)[O-])cc2)CC1` was run?
A: The Potency was “inactive”.

Q: How did the Potency turn out when `OC(CSc1ccccc1Cl)CN1CCN(c2ccc(F)cc2)CC1` (stereo not drawn) was run?
A: Its Potency is inconclusive: 100 µM [inhibitor, single point].

Q: `CCn1c(SCC(=O)c2ccc3c(c2)OCCO3)nnc1C(C)C` was tested. Which Potency did it give?
A: Its Potency is inconclusive: 50.1 µM [inhibitor, partial curve, poor fit].

Q: `O=C(/C=C/c1ccc(F)cc1)c1ccccc1Br` was tested. Which Potency did it give?
A: The Potency was “inactive”.

Q: For `OCC1OC(n2cnc3c(SCc4ccccc4)nc(NO)nc32)C(O)C1O` (stereo not drawn), which Potency is on record?
A: Its Potency is inconclusive: 31.6 µM [inhibitor, partial curve, poor fit].

Q: `Cn1cc(C(=O)N/N=C/c2ccc(Br)c([N+](=O)[O-])c2)c2ccccc21` was tested. Which Potency did it give?
A: The Potency was “inactive”.

Q: Which Potency does the source give for `Cc1n[nH]c(C)c1C(NC(=O)c1c(C)c2cccc(C)c2n1C)C(=O)O` (stereo not drawn) here?
A: The Potency was inconclusive: 17.8 µM [inhibitor, single point].

Q: Which Potency does the source give for `O=C(OCc1nnnn1-c1ccccc1)C1(c2ccccc2F)CCCC1` here?
A: Its Potency is inconclusive: 44.7 µM [inhibitor, partial curve, poor fit].

Q: With `CC(C)C(=O)NC(Nc1cccc2ccccc12)C(Cl)(Cl)Cl` (stereo not drawn) as the compound, how does the Potency read?
A: The Potency was active: 11.2 µM.

Q: Which Potency does the source give for `COCCn1c(N)c(N(Cc2ccccc2)C(=O)c2ccc(-c3ccc(Cl)cc3)o2)c(=O)[nH]c1=O` here?
A: Its Potency is inconclusive: 112 µM [inhibitor, single point].

Q: How did the activity change, negative = inhibition turn out when `Cc1ccccc1CNC(=O)CCCn1c(=O)c2cccn2c2cccnc21` was run?
A: The activity change, negative = inhibition was inconclusive: -31.1% [inhibitor].

Q: `CN(C)CCCNc1cc(C(C)(C)C)nc2c(-c3ccc(Cl)cc3)cnn12` was tested. Which Potency did it give?
A: Its Potency is “inactive”.

Q: `CC(C)(C=O)C1=CC(=O)c2ccccc2C1=O` was tested. Which Potency did it give?
A: The Potency was active: 39.8 µM.

Q: Which Potency does the source give for `Cc1nc(SCC(=O)NCC2CCCO2)c2c3c(sc2n1)CCCC3` (stereo not drawn) here?
A: Its Potency is “inactive”.

Q: For `ClCc1ncc(-c2ccc(Cl)cc2)o1`, which Potency is on record?
A: The Potency was inconclusive: 20 µM [inhibitor, partial curve].

Q: `Cc1ccc(S(=O)(=O)Nc2c(C(=O)O)[nH]c3ccccc23)c(C)c1` was tested. Which Potency did it give?
A: The Potency was “inactive”.

Q: `COCCn1nnnc1C(c1cccc(C(F)(F)F)c1)N1CCN(Cc2ccccc2)CC1` (stereo not drawn) was tested. Which Potency did it give?
A: The Potency was inconclusive: 39.8 µM [inhibitor, partial curve, poor fit].

Q: With `CCOc1cccc(CNC(=O)c2c(OC)cc(=O)n3c2CCCC3)c1` as the compound, how does the Potency read?
A: The Potency was “inactive”.

Q: `Nc1nc(CSc2nc3ccccc3s2)nc(N2CCOCC2)n1` was tested. Which Potency did it give?
A: Its Potency is inconclusive: 112 µM [inhibitor, partial curve, poor fit].

Q: `CCCCOc1c(Cl)cc(C(=O)N2CCN(CC(=O)N3CCCC3)CC2)cc1OCC` was tested. Which Potency did it give?
A: The Potency was inconclusive: 44.7 µM [inhibitor, partial curve, poor fit].

Q: How did the Potency turn out when `COc1cccc(/C=C2\SC(=S)N(C(Cc3ccccc3)C(=O)O)C2=O)c1` (stereo not drawn) was run?
A: The Potency was active: 44.7 µM.

Q: For `O=C(COC(=O)c1ccccc1O)Nc1ccccc1N1CCCC1=O`, which Potency is on record?
A: The Potency was “inactive”.

Q: For `COc1ccc(CCNc2nc(N3CCCCC3)nc(N3CCCCC3)n2)cc1OC`, which Potency is on record?
A: The Potency was inconclusive: 35.5 µM [inhibitor, partial curve, poor fit].

Q: Which Potency does the source give for `COC(=O)[C@H](C(C)C)N(Cc1cn(CC2CCCCC2)nn1)S(=O)(=O)c1ccc(F)cc1Br` here?
A: Its Potency is inconclusive: 6.31 µM [inhibitor, partial curve, poor fit].

Q: `C=CCNCCCCOc1ccc(OCc2ccccc2)cc1` was tested. Which Potency did it give?
A: The Potency was inconclusive: 1.26 µM [inhibitor, full curve, poor fit].

Q: With `CCn1c(C)c(P(c2ccccc2)c2ccccc2)[n+]2ccccc12` as the compound, how does the Potency read?
A: The Potency was inconclusive: 44.7 µM [inhibitor, partial curve, poor fit].

Q: How did the Potency turn out when `COC(=O)Cc1ccc(O)c(N)c1` was run?
A: The Potency was “inactive”.

Q: For `Cc1sc2ncnc(NCC(c3ccco3)N(C)C)c2c1C` (stereo not drawn), which Potency is on record?
A: The Potency was inconclusive: 0.178 µM [inhibitor, full curve, poor fit].

Q: For `O=C(Cc1ccc(Cl)c(Cl)c1)NC1(c2ccccc2)CCC1`, which Potency is on record?
A: The Potency was inconclusive: 44.7 µM [inhibitor, single point].

Q: For `CC(=O)N1N=C(c2ccccc2Cl)CC1c1ccc2nccnc2c1` (stereo not drawn), which Potency is on record?
A: The Potency was “inactive”.

Q: For `CC1(C(=O)NS(=O)(=O)c2ccc(Cl)s2)CCN1C(=O)CCc1ccccc1` (stereo not drawn), which Potency is on record?
A: Its Potency is inconclusive: 25.1 µM [inhibitor, partial curve].

Q: `CCOc1ccc(NC(=O)C(CC)Oc2ccc(F)cc2)c2cccnc12` (stereo not drawn) was tested. Which Potency did it give?
A: Its Potency is inconclusive: 31.6 µM [inhibitor, partial curve, poor fit].

Q: For `Cc1ccc2oc3nc(C)c(C(=O)O)cc3c(=O)c2c1`, which Potency is on record?
A: The Potency was inconclusive: 39.8 µM [inhibitor, partial curve, poor fit].

Q: With `CCOc1ccc(S(=O)(=O)Nc2ccccc2)cc1-c1nc2c(C(C)(C)C)nn(C)c2c(=O)[nH]1` as the compound, how does the Potency read?
A: Its Potency is inconclusive: 35.5 µM [inhibitor, partial curve, poor fit].

Q: With `COc1ccc(NC(=O)CSc2nc(Cl)nc3nc[nH]c23)cc1` as the compound, how does the Potency read?
A: Its Potency is “inactive”.

Q: `Fc1ccc([C@@H]2CCNC[C@H]2COc2ccc3c(c2)OCO3)cc1` was tested. Which Potency did it give?
A: The Potency was inconclusive: 44.7 µM [inhibitor, partial curve, poor fit] and inconclusive: 44.7 µM [inhibitor, partial curve] and inconclusive: 56.2 µM [inhibitor, partial curve, poor fit].

Q: With `O=C1/C(=C\c2ccccc2)CCC/C1=C/c1ccccc1` as the compound, how does the Potency read?
A: Its Potency is inconclusive: 89.1 µM [inhibitor, partial curve, poor fit].

Q: Which Potency does the source give for `CCOc1ccc(-c2nc(N)ncc2-c2ccc(OC)cc2)c(O)c1` here?
A: The Potency was “inactive”.

Q: `COc1ccc(NC(=O)c2ccc(N3CCOCC3)nc2)cc1` was tested. Which Potency did it give?
A: Its Potency is “inactive”.

Q: For `O=C(/C=C/c1ccccc1)Nc1cccc(S(=O)(=O)Nc2ccccc2F)c1`, which Potency is on record?
A: Its Potency is active: 22.4 µM.

Q: How did the Potency turn out when `CCCCCCCCCCSCCC(=O)O` was run?
A: Its Potency is active: 39.8 µM.

Q: `Cc1cc(N2CCN(c3ccccc3)CC2)nc(NCc2ccccc2)n1` was tested. Which Potency did it give?
A: Its Potency is “inactive”.

Q: For `Cc1cc(O)cc2c1C1CCC3(C)C(O)CCC3C1C=C2` (stereo not drawn), which Potency is on record?
A: The Potency was inconclusive: 50.1 µM [inhibitor, partial curve, poor fit].

Q: `Cc1ccc(CN2C(=O)NC3(CCCN(C(=O)c4ccc(C#N)cc4)C3)C2=O)cc1` (stereo not drawn) was tested. Which Potency did it give?
A: The Potency was inconclusive: 2.24 µM [inhibitor, full curve].

Q: For `COc1cccc(Cn2c(=O)c(CCc3ccccc3)nc3cnc(N4CCN(C)CC4)nc32)c1`, which Potency is on record?
A: The Potency was inconclusive: 10 µM [inhibitor, full curve, poor fit].

Q: Which Potency does the source give for `CCCCCCCCS(=O)CCCCC(=O)O` (stereo not drawn) here?
A: The Potency was “inactive”.

Q: How did the Potency turn out when `Cc1ccc(CSc2nc3c(c(=O)[nH]c(=O)n3C)n2CCC(C)C)cc1` was run?
A: The Potency was “inactive”.

Q: For `COc1ccc(C(O)Cn2ccsc2=NC(C)=O)cc1` (stereo not drawn), which Potency is on record?
A: The Potency was inconclusive: 35.5 µM [inhibitor, partial curve, poor fit].

Q: With `CC(C)C1CCC(C(=O)N[C@H](Cc2ccccc2)C(=O)O)CC1` (stereo partly drawn) as the compound, how does the Potency read?
A: Its Potency is inconclusive: 7.69 µM [inhibitor, partial curve, poor fit].

Q: How did the Potency turn out when `Cc1cccn2cc(COc3ccc(C(=O)O)cc3)nc12` was run?
A: The Potency was inconclusive: 35.5 µM [inhibitor, partial curve, poor fit].

Q: With `CCOc1ccc(C2NC(=O)C(C#N)=C(S)N2c2ccc(OC)cc2)cc1OC` (stereo not drawn) as the compound, how does the Potency read?
A: Its Potency is inconclusive: 3.55 µM [inhibitor, full curve, poor fit].

Q: For `CCc1cc(C(=O)c2ccc(OC)cc2)c(NC(=O)COCC(=O)O)s1`, which Potency is on record?
A: The Potency was inconclusive: 44.7 µM [inhibitor, partial curve, poor fit].

Q: How did the Potency turn out when `O=C(NCC1CCCO1)c1onc(CSc2ccc(F)cc2)c1C(=O)O` (stereo not drawn) was run?
A: The Potency was inconclusive: 31.6 µM [inhibitor, full curve, poor fit].

Q: Which Potency does the source give for `NC(=S)N/N=C1\CCCC\C1=C/c1ccco1` here?
A: Its Potency is inconclusive: 100 µM [inhibitor, single point].

Q: Which Potency does the source give for `O=C(COC(=O)CCN1C(=O)/C(=C\C=C\c2ccccc2)SC1=S)Nc1ccc(Br)cc1` here?
A: Its Potency is inconclusive: 31.6 µM [inhibitor, partial curve, poor fit].

Q: With `Cc1oc(-c2ccc(Cl)cc2)nc1CN1CCC(C(=O)NCCCN2CCN(c3cccc(Cl)c3)CC2)CC1` as the compound, how does the Potency read?
A: Its Potency is inconclusive: 50.1 µM [inhibitor, partial curve, poor fit].

Q: `CC(C)c1nc2sc(C(=O)O)c(N)c2c2c1CCCC2` was tested. Which Potency did it give?
A: Its Potency is “inactive”.
